No constants are given. Whether binding was seen depends on the method and setting. In cells and extracts the contact can be indirect. Some binding calls cover weakened binding; strength is not graded here.
Target: T1, LIM homeodomain transcription factor islet1 (ISL1) (UniProt P61371)
T1 sequence: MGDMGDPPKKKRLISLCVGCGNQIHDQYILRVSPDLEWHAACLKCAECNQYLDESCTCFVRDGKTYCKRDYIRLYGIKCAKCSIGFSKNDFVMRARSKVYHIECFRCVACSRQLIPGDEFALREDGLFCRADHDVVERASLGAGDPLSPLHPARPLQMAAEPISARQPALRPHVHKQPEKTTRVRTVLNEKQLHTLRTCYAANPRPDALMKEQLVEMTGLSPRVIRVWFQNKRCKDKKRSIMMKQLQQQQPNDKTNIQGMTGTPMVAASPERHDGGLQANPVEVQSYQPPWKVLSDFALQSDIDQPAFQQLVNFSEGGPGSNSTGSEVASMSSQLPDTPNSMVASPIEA
Assay: co-IP; cell lysate mixed with anti-ISL1/anti-KDM6B and protein A sepharose at 4 °C overnight; beads washed three times with lysis buffer; Western blot for KDM6B/ISL1; 10% supernatant as input

Sequences of proteins named here, by UniProt entry; tags and fusion partners are left off.
UniProt O15054: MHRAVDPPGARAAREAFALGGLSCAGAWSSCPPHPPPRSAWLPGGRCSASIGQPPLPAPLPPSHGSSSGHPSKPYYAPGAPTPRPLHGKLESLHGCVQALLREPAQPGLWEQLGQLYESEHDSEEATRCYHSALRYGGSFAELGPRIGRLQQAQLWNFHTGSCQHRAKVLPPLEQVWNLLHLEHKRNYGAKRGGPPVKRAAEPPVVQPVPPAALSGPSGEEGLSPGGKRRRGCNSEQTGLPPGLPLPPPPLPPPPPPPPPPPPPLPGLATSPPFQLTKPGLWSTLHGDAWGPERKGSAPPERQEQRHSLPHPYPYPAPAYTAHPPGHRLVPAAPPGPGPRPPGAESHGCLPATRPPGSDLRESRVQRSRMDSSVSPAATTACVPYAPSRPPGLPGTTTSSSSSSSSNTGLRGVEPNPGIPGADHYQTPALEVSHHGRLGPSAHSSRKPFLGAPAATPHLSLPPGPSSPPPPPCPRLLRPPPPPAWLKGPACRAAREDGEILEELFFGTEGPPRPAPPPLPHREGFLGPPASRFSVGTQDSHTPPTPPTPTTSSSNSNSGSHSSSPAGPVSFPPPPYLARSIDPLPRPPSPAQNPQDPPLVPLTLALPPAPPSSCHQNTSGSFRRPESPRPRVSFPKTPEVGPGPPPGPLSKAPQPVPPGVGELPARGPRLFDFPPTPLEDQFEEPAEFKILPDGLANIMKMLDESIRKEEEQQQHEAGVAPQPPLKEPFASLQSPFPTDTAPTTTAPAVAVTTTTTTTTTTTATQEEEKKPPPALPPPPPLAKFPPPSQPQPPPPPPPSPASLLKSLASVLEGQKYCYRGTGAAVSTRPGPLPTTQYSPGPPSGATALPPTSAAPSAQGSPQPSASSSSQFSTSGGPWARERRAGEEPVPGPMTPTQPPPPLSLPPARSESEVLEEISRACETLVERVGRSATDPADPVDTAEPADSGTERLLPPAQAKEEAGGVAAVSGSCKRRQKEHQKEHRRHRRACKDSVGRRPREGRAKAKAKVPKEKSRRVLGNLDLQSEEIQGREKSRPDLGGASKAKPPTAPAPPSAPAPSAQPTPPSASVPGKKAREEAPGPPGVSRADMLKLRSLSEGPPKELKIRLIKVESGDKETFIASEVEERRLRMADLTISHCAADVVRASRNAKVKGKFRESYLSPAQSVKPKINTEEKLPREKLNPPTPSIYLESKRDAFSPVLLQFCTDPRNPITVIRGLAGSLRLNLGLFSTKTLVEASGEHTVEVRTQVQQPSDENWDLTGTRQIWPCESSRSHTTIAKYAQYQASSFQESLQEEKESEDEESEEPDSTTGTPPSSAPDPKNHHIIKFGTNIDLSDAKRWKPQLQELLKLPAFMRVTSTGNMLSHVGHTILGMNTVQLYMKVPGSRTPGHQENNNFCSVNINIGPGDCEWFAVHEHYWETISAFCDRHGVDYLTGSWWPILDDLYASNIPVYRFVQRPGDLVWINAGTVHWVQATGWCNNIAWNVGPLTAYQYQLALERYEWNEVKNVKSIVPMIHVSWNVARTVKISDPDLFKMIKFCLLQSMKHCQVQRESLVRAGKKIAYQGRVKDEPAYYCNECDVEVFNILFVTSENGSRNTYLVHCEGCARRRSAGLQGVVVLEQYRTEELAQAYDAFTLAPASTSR

binding: binds
Substance: Lysine-specific demethylase 6B (KDM6B) (from UniProt O15054 1-1643)

Source: paper PMC8802528
